Data as given in PubChem BioAssay AID1053208 (Peter MacCallum Cancer Centre, 2014)

Aim: 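Synthetic lethal interactions between gene loss and doxorubicin in osteosarcoma cells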 (primary screen)
System: mouse osteosarcoma cells, early-passage culture from an engineered mouse model of fibroblastic bone tumour
Reagent: siRNA pool against mouse genes, 40 nM
Duration: about 120 h (48 h before drug, then 72 h with drug)
Challenge: doxorubicin 100 nM for 72 h, roughly 30-40% inhibitory dose
Measured: 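Viability read as ATP luminescence after 72 h of 100 nM doxorubicin or none, duplicate wells averaged, scaled to non-targeting siRNA, then expressed as robust z-scores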
Direction: viability z-score with doxorubicin: higher = more viable cells under doxorubicin; viability z-score without drug: higher = more viable cells with knock-down alone
Hit rule: 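Called active if knock-down leaves viability unchanged without drug (z within -2 to 2) but lowers it with doxorubicin (z at or under -2)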
This is a random part of about 17,000 deposited reagents. 788 of them (4.7%) count as active. 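Calls rest on z-score classes alone; an extra cut-off of viability at most 70% of control was not applied to them.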 Further read-outs or replicates are left out here.

Silencing of Lrrc3 resulted in: combined z-score class no change with or without drug; viability z-score with doxorubicin -0.22; viability z-score without drug -1.01; inactive.
Depletion of Prkcb resulted in: combined z-score class high cell count with doxorubicin only; viability z-score with doxorubicin 2.81; viability z-score without drug 1.35; inactive.
Knock-down of Diras1 came out at: combined z-score class no change with or without drug; viability z-score with doxorubicin 0.79; viability z-score without drug -0.17; inactive.
For Kcna3, the values are combined z-score class no change with or without drug; viability z-score with doxorubicin 0.22; viability z-score without drug -0.17; inactive.
Depletion of Vamp2 resulted in: combined z-score class no change with or without drug; viability z-score with doxorubicin -0.45; viability z-score without drug -0.51; inactive.
After knock-down of Yipf6, the screen gave combined z-score class no change with or without drug; viability z-score with doxorubicin 0; viability z-score without drug 0.51; inactive.
Depletion of Or1f19 gave: combined z-score class no change with or without drug; viability z-score with doxorubicin -1.8; viability z-score without drug -1.52; inactive.
Against Ppm1g, the entry reads combined z-score class no change with or without drug; viability z-score with doxorubicin 0.67; viability z-score without drug -0.51; inactive.
Pax4 showed combined z-score class no change with or without drug; viability z-score with doxorubicin 1.35; viability z-score without drug -0.17; inactive.
Knock-down of Gm4922 gave: combined z-score class no change with or without drug; viability z-score with doxorubicin 0.45; viability z-score without drug -0.17; inactive.
Knock-down of Smndc1 came out at: combined z-score class no change with or without drug; viability z-score with doxorubicin 1.46; viability z-score without drug 0.67; inactive.
For Prl2b1 the deposit lists combined z-score class no change with or without drug; viability z-score with doxorubicin 1.12; viability z-score without drug 0.17; inactive.
